{"source": "PubChem BioAssay AID1224826 (NIAID, 2016)", "screen": "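Genes that change LPS-induced Tnf promoter activity in mouse macrophages when knocked down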 (primary screen)", "cells": "RAW264.7 G9 macrophages from mouse bearing reporters for p65 (GFP) and the Tnf promoter (mCherry)", "reagent": "siRNA pool against mouse genes, 100 nM", "duration": "16 h of LPS stimulation, after 2 days of siRNA transfection", "conditions": "bacterial lipopolysaccharide (Salmonella minnesota R595), 10 ng/ml", "measured": "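Imaged Tnf reporter mCherry in nuclei, minus background, normalised per plate to the median and expressed as robust z-scores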", "direction": "Tnf reporter robust z-score: higher = stronger Tnf promoter reporter signal after LPS", "call rule": "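Called active when robust z-score is at most -1.3, matching the median of the Tlr4 knock-down control, or over 3; control wells and wells with under 50 cells never active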", "meaning of the calls": "active = Tnf reporter clearly lowered or raised; inactive = no clear change in Tnf reporter", "note": "Here is one part, drawn at random, of about 17,000 deposited reagents. About 1,110 of all reagents (6.6%) count as active. 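Active means lowered or raised reporter signal; replicate intensities are raw and not normalised per plate.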 Further read-outs or replicates are left out here."}
{"gene":"Asb14 (ankyrin repeat and SOCS box-containing 14)","PubChem SID":"SID315477163","Tnf reporter robust z-score":0.04,"fewer than 50 cells in well":"enough cells in well","Outcome":"inactive"}
{"gene":"Snx6 (sorting nexin 6)","PubChem SID":"SID315474488","Tnf reporter robust z-score":-0.47,"fewer than 50 cells in well":"enough cells in well","Outcome":"inactive"}
{"gene":"Erg (ETS transcription factor)","PubChem SID":"SID315466555","Tnf reporter robust z-score":-0.45,"fewer than 50 cells in well":"enough cells in well","Outcome":"inactive"}
{"gene":"Senp3 (SUMO/sentrin specific peptidase 3)","PubChem SID":"SID315475739","Tnf reporter robust z-score":-1.6,"fewer than 50 cells in well":"enough cells in well","Outcome":"active"}
{"gene":"Cxcl1 (C-X-C motif chemokine ligand 1)","PubChem SID":"SID315467042","Tnf reporter robust z-score":-0.4,"fewer than 50 cells in well":"enough cells in well","Outcome":"inactive"}
{"gene":"Cyp2b9 (cytochrome P450, family 2, subfamily b, polypeptide 9)","PubChem SID":"SID315466228","Tnf reporter robust z-score":-0.72,"fewer than 50 cells in well":"enough cells in well","Outcome":"inactive"}
{"gene":"Fcsk (fucose kinase)","PubChem SID":"SID315479193","Tnf reporter robust z-score":-0.61,"fewer than 50 cells in well":"enough cells in well","Outcome":"inactive"}
{"gene":"AI854703 (expressed sequence AI854703)","PubChem SID":"SID315479681","Tnf reporter robust z-score":-1.13,"fewer than 50 cells in well":"enough cells in well","Outcome":"inactive"}
{"gene":"Gm5094 (predicted gene 5094)","PubChem SID":"SID315481499","Tnf reporter robust z-score":1.78,"fewer than 50 cells in well":"enough cells in well","Outcome":"inactive"}
{"gene":"D330005C11Rik (RIKEN cDNA D330005C11 gene)","PubChem SID":"SID315481082","Tnf reporter robust z-score":-0.75,"fewer than 50 cells in well":"enough cells in well","Outcome":"inactive"}
{"gene":"Eif2ak3 (eukaryotic translation initiation factor 2 alpha kinase 3)","PubChem SID":"SID315466470","Tnf reporter robust z-score":-0.83,"fewer than 50 cells in well":"enough cells in well","Outcome":"inactive"}
{"gene":"Ssb (small RNA binding exonuclease protection factor La)","PubChem SID":"SID315469472","Tnf reporter robust z-score":-1.58,"fewer than 50 cells in well":"enough cells in well","Outcome":"active"}
{"gene":"Klra16 (killer cell lectin-like receptor, subfamily A, member 16)","PubChem SID":"SID315470628","Tnf reporter robust z-score":0.63,"fewer than 50 cells in well":"enough cells in well","Outcome":"inactive"}
{"gene":"Fv4 (Friend virus susceptibility 4)","PubChem SID":"SID315466768","Tnf reporter robust z-score":-0.43,"fewer than 50 cells in well":"enough cells in well","Outcome":"inactive"}
{"gene":"9130221H12Rik (RIKEN cDNA 9130221H12 gene)","PubChem SID":"SID315475451","Tnf reporter robust z-score":-1.38,"fewer than 50 cells in well":"enough cells in well","Outcome":"active"}
{"gene":"Acap1 (ArfGAP with coiled-coil, ankyrin repeat and PH domains 1)","PubChem SID":"SID315478045","Tnf reporter robust z-score":0.37,"fewer than 50 cells in well":"enough cells in well","Outcome":"inactive"}
{"gene":"Polr2b (polymerase (RNA) II (DNA directed) polypeptide B)","PubChem SID":"SID315478886","Tnf reporter robust z-score":-1.81,"fewer than 50 cells in well":"enough cells in well","Outcome":"active"}
{"gene":"Zim1 (zinc finger, imprinted 1)","PubChem SID":"SID315470153","fewer than 50 cells in well":"fewer than 50 cells per well; well left out of calls","Outcome":"inactive"}
{"gene":"Sirt6 (sirtuin 6)","PubChem SID":"SID315470818","Tnf reporter robust z-score":2.17,"fewer than 50 cells in well":"enough cells in well","Outcome":"inactive"}
{"gene":"Pcnt (pericentrin (kendrin))","PubChem SID":"SID315468411","Tnf reporter robust z-score":-0.01,"fewer than 50 cells in well":"enough cells in well","Outcome":"inactive"}
{"gene":"Mfrp (membrane frizzled-related protein)","PubChem SID":"SID315480722","Tnf reporter robust z-score":-0.64,"fewer than 50 cells in well":"enough cells in well","Outcome":"inactive"}

Just “fewer than 50 cells in well” (3 entries from above):
Cyp2b9 (cytochrome P450, family 2, subfamily b, polypeptide 9) [SID315466228] = enough cells in well
Fcsk (fucose kinase) [SID315479193] = enough cells in well
AI854703 (expressed sequence AI854703) [SID315479681] = enough cells in well
